Among all 31,000 sequences or so, about 1,400 (4.5%) were called active.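 How the source made its calls: active means median seed-adjusted z-score above 1 or below -1; inactive means the rest.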 This is one part of the list.

The assay is described as follows: Novel Modifiers of Survival Motor Neuron (SMN) Protein: Gene Identification via Genome-wide siRNA Screen.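 Further: luminescence tracks full-length SMN protein made from the SMN2 reporter.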 To be noted: HEK293T SMN2-luciferase reporter, siRNA knockdown, 72 h; actives lie on both sides. Put shortly: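 Steps: spot 1 pmol siRNA, add Lipofectamine RNAiMax in serum-free DMEM, seed HEK293T SMN2–luciferase reporter cells; incubate 72 h at 37 °C; add ONE-Glo; normalize luminescence to control siRNA, log10, MAD. Candidates: |MAD| > 1.0.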
Consider GGGCCCAAAUCUUACCUUUTT against LIMD1, for which the median seed-adjusted z-score is inactive: 0.587.

On to AUCUGUGGUUUGUCCGAUATT against RNF114, for which the median seed-adjusted z-score was inactive: 0.452.

Regarding AGAUAACGGAUUUGGGAUATT against ZNF592, the median seed-adjusted z-score was inactive: 0.0774.

On to CGAUUACUCCAAAUGUAAATT against EIF2B1, for which the median seed-adjusted z-score is inactive: 0.206.

On to CCGUGUUUCUGAGCUAGAATT against CLTCL1, for which the median seed-adjusted z-score was inactive: 0.341.

As for GUCUCACUGUAGAUCCUGATT against SCYL1, the median seed-adjusted z-score was inactive: 0.0409.

For CCACAACGGACAGUCCAUATT against CYP17A1, the median seed-adjusted z-score is active: -1.39.

As for GCAUAAUUGUCAGCCGUAUTT against SCML1, the median seed-adjusted z-score is inactive: 0.575.

Turning to GGCCUCUCCCUGUAUGAAATT against GON4L, the median seed-adjusted z-score is inactive: 0.116.

On to GUACCUGCCUGUAACUCUATT against GANAB, for which the median seed-adjusted z-score was inactive: 0.269.

Turning to GCGUGAUGAGAUCCUGUUATT against ALDH18A1, the median seed-adjusted z-score was inactive: 0.116.

In the case of ACACGUACCCUACAUCUUATT against EPHB6, the median seed-adjusted z-score is inactive: -0.0275.

With GAACAAUGCUGAGUUGAAUTT against CPB1, the median seed-adjusted z-score was inactive: -0.376.

On to GGAAUACCUCUACUAACAATT against RAGE, for which the median seed-adjusted z-score was inactive: -0.154.

Regarding GUGCCUUACUUGAUAUGGATT against STXBP4, the median seed-adjusted z-score is inactive: -0.565.

For the sequence GAGGCAACUUUUAAGCUGATT against OLAH, the median seed-adjusted z-score is inactive: -0.44.

Consider AAGGCUACUUAACAAAGGATT against S100A10, for which the median seed-adjusted z-score was inactive: 0.366.

Regarding GGAAAACCUUUACACGUAATT against ZNF445, the median seed-adjusted z-score was inactive: -0.0752.

For GCAUCGUGAUCGUUCCAAUTT against CHD1L, the median seed-adjusted z-score is inactive: 0.63.

Take GCUACAAGAUGACACCUCATT against BCL2L12: the median seed-adjusted z-score is inactive: -0.77.

As for CCUAUAAGGAGAUUUCAUATT against BCL2A1, the median seed-adjusted z-score was inactive: 0.0557.

Take CAUUGGAAAUUACGAGAAATT against APPBP2: the median seed-adjusted z-score was inactive: -0.0432.

CCAUCUUUCUCAAGCUCGATT against CNTNAP2: the median seed-adjusted z-score was inactive: -0.196.

For UGAAGUGCAUCAACCACUATT against EFEMP2, the median seed-adjusted z-score was inactive: -0.143.

In the case of CUUUGACUAUAAGGACAAATT against CYP2A6, the median seed-adjusted z-score was inactive: 0.117.

For the sequence CCAAUACACUAGCAGUUAATT against TCP1, the median seed-adjusted z-score was active: -1.02.

For the sequence GGACCUGUCUUGUGGUUCATT against SIRPD, the median seed-adjusted z-score is inactive: -0.257.

Regarding GAGUAUCCACAGAAGUAGATT against TALDO1, the median seed-adjusted z-score was inactive: 0.131.

As to GGCUAUAAUAGACACGAGATT against CDH6, the median seed-adjusted z-score was inactive: 0.

With GGAUCACAACCGAGCUAAATT against MDH1, the median seed-adjusted z-score is inactive: -0.154.

UGAUAGAGAUCAACCCAUATT against PSMB5: the median seed-adjusted z-score is active: -1.37.

Turning to GCAGUGCUCCUACAUCCCATT against KCNMB1, the median seed-adjusted z-score is inactive: -0.465.

Take GCUACGACGUGAACGGCAATT against PCSK6: the median seed-adjusted z-score is inactive: 0.

GCAUUGACCAUCUAUGAGATT against IFNB1: the median seed-adjusted z-score was inactive: 0.

Take CCUUUGAUCCUAAGCCCAUTT against GLUL: the median seed-adjusted z-score is inactive: -0.307.

As to CCUGAUUACUAUAAGAUCATT against BRD4, the median seed-adjusted z-score is active: 1.13.

On to UCCUUUUCCUCAAGCUCUATT against MGAT3, for which the median seed-adjusted z-score is inactive: -0.118.

In the case of CGUAGUCCAUGUGAAGUCATT against IDH3B, the median seed-adjusted z-score is inactive: -0.642.

In the case of GGAAGACACUGUUCGAUCATT against GDAP2, the median seed-adjusted z-score is inactive: 0.199.

On to CGACUGUCCUUCUAUGAGATT against NOP56, for which the median seed-adjusted z-score was inactive: 0.307.

On to GAAGGCGGUUAUACAAUUATT against ACSL4, for which the median seed-adjusted z-score is inactive: -0.0582.

Take GAAUCUAUCCCAUUGAUCUTT against DDX1: the median seed-adjusted z-score is inactive: 0.507.

Consider CAGCCUUCAUGAGAUGUUATT against AMPD3, for which the median seed-adjusted z-score was inactive: -0.0865.

CCUUAGCGGUAGUAACUUUTT against MGP: the median seed-adjusted z-score was inactive: -0.0854.

As to GCGACCAACUGAUUGUCGATT against PTPRZ1, the median seed-adjusted z-score is active: 1.73.

On to GCUAUGUCAUCACUACCAATT against KCNAB3, for which the median seed-adjusted z-score was inactive: 0.0697.

For the sequence CAUCGUGGGCGUGAACAAATT against EEF1A2, the median seed-adjusted z-score was inactive: -0.64.

GUUCUUCACUUCAGGAACATT against AGPAT2: the median seed-adjusted z-score was inactive: 0.38.

For GAAUAGUGUUCGGAUUGGATT against ST8SIA3, the median seed-adjusted z-score is inactive: -0.848.

For GCAUUAAAAGCUACUUUCATT against ETS1, the median seed-adjusted z-score was inactive: -0.0588.

Turning to ACCGACUCAUGAGACAUAATT against ZNF548, the median seed-adjusted z-score was inactive: -0.508.

For the sequence AGACCAAGGUCAACGUGCATT against FLRT1, the median seed-adjusted z-score is inactive: -0.00451.

Take GCACACUGCAUACAACCGATT against ESSPL: the median seed-adjusted z-score was inactive: 0.328.

In the case of CAAUUGGAAUCGUCUUUUUTT against UBAC2, the median seed-adjusted z-score is inactive: 0.611.

For AAGACAUGAUGUUCCACAATT against ADCY6, the median seed-adjusted z-score is inactive: -0.0652.

Consider CCAUCGGCAUCACCUUCUATT against SLC35C2, for which the median seed-adjusted z-score was inactive: -0.483.

GAGCCGUGGUUUUAAGGAUTT against EIF4A2: the median seed-adjusted z-score is inactive: 0.

AGAUCCUCCUGUACAUAGATT against CYP4F3: the median seed-adjusted z-score was inactive: -0.336.

As for GGAUGGAGCUUCACACGAUTT against RGL2, the median seed-adjusted z-score was inactive: 0.174.

Regarding CACUGAUAACCAACACUGATT against ST14, the median seed-adjusted z-score was inactive: -0.534.

As to GUGUUUGACGGGAAACAAATT against CD8A, the median seed-adjusted z-score is inactive: 0.777.

Turning to GAAUGCAUGUGAUCACCUATT against SF3B14, the median seed-adjusted z-score was active: -1.26.

Regarding GUAUCGAAGAAGUGAUAAATT against ALDH1A3, the median seed-adjusted z-score was inactive: 0.228.

As for GGUCCAAUUUAACCAACUATT against TEKT3, the median seed-adjusted z-score is inactive: 0.0494.

Turning to GCAUGUAAUGAGUAUCACATT against MRS2, the median seed-adjusted z-score was active: 1.38.

GCAACUACAAGGCUAUAUUTT against FRK: the median seed-adjusted z-score was inactive: -0.14.

For the sequence CCAGGCCAACAAUUGCCAGTT against AMH, the median seed-adjusted z-score is inactive: -0.255.

Regarding GUUAUACCUUAGUUACUUUTT against FUT9, the median seed-adjusted z-score is inactive: 0.0444.

As for CUAUCUAGGCUAUUCAAUATT against RHOT1, the median seed-adjusted z-score was inactive: -0.189.

For the sequence CCAUCAUACCUUCUUUGAATT against AARS2, the median seed-adjusted z-score is inactive: -0.52.

Turning to CAGUCAAGACUUUACCACUTT against CLCN1, the median seed-adjusted z-score is inactive: 0.314.

In the case of GGCUUGGAUCAAUCUAAGATT against HNRNPL, the median seed-adjusted z-score is active: 1.04.

On to GCAUCUGACAUAAUAGUCATT against SP100, for which the median seed-adjusted z-score was inactive: -0.235.

Take AGAUGUGACUGGCUGGUCATT against LCN12: the median seed-adjusted z-score is inactive: 0.124.

In the case of GGAGGUGGUUCAAUUCGAATT against DARS2, the median seed-adjusted z-score was inactive: 0.0673.

CGGACCAAGUUAAGCGGAATT against ATP2A1: the median seed-adjusted z-score is inactive: -0.0384.

Regarding CCACGAUCUAUGAAGGUUATT against MCM9, the median seed-adjusted z-score is inactive: -0.709.

With GCUUUAUCGAUAUAUACCATT against SLC25A14, the median seed-adjusted z-score is inactive: 0.281.

With CGAAGACGCAUUUAGUAAATT against HLF, the median seed-adjusted z-score is inactive: 0.0548.

As for GGCUCAUUAUUAAUAGAUUTT against HIBADH, the median seed-adjusted z-score is inactive: 0.234.

As to CAAAUUCCGAAGCAUCUUATT against RNPEP, the median seed-adjusted z-score is inactive: -0.236.

For the sequence GAAGAAUAGUGAUGCUCGATT against GRIA1, the median seed-adjusted z-score is inactive: 0.927.

For the sequence AGAACACGGAGAUUAGUUUTT against FABP7, the median seed-adjusted z-score is inactive: 0.562.

With GGAUGAUCUUUUUGAUAGATT against TOP1, the median seed-adjusted z-score is inactive: 0.0303.

On to GGUCUUCAGUCGAAUUACATT against ZNF766, for which the median seed-adjusted z-score was inactive: -0.577.

Turning to GGAGGAUGACUUGACUGAUTT against FCRLA, the median seed-adjusted z-score was inactive: 0.03.

Take GAAUAGACGGCACCAUAGATT against RYR2: the median seed-adjusted z-score was inactive: -0.354.

Consider GAUUAGGAGUACAUACGAATT against PAPOLB, for which the median seed-adjusted z-score is inactive: 0.749.

Turning to GCUACAAUGGUUCUCCAAATT against TFCP2L1, the median seed-adjusted z-score is inactive: -0.246.

GCACCAAAGUAAACGCAGATT against TNFRSF11B: the median seed-adjusted z-score is inactive: 0.582.

Regarding CGCACAACUGUCAAAUAUATT against SLC9A5, the median seed-adjusted z-score was inactive: -0.545.

Turning to CACUUGCUUCAAUCGAAUATT against SMURF2, the median seed-adjusted z-score is inactive: 0.351.

For GAAUGAAAUCAGAGUAUAATT against RNF125, the median seed-adjusted z-score was inactive: 0.204.

GUAUGAAGGAGGUAUCUUUTT against UMPS: the median seed-adjusted z-score was inactive: 0.191.

For GGUGUGAACCUGACACGCATT against PYCR2, the median seed-adjusted z-score was inactive: 0.00371.

As for AGCUCGUCAGCUACACCAATT against SLC12A4, the median seed-adjusted z-score is inactive: -0.0667.

With CAGAGGUUCGAGAAAAUGATT against HK2, the median seed-adjusted z-score was inactive: -0.0135.

With CCAACUAUCUAACUCCACUTT against UTX, the median seed-adjusted z-score is inactive: 0.157.

For UGACUUUCCUCUCUACGGUTT against SLC10A3, the median seed-adjusted z-score was inactive: -0.25.

On to GCUUUAUGUGGGCUCAUUATT against RBM39, for which the median seed-adjusted z-score was active: -1.82.

With GUAUGAGGGUCAUAUUGAATT against MAST2, the median seed-adjusted z-score is inactive: 0.27.

GGAGAGUCAUUGUUUGCAATT against LGALS3: the median seed-adjusted z-score is inactive: 0.14.

Consider GCACUGUCGUAGCUGAGAATT against CORO1A, for which the median seed-adjusted z-score is inactive: 0.569.

With GACUGAUGAUGGUCAAGGATT against FMR1, the median seed-adjusted z-score was inactive: 0.504.

For the sequence GCAAUUGUCAUAAAACCAATT against ATM, the median seed-adjusted z-score was inactive: 0.22.

On to AACAAUCUGUGACUAUUAATT against SKP1, for which the median seed-adjusted z-score was inactive: -0.0492.

Consider GAGCCGGUGUCUUCAGAUATT against CASQ2, for which the median seed-adjusted z-score was inactive: 0.4.

With GGACUUUAUUCGGAAGCUUTT against DAPK2, the median seed-adjusted z-score was inactive: 0.268.
